Some of the results follow.
compound: Cc1cn(-c2cc(NC(=O)c3ccc(C)c(Nc4nccc(-c5cccnc5)n4)c3)cc(C(F)(F)F)c2)cn1 [nilotinib]; experiment: log2 fold change, soluble protein after heating vs DMSO (PISA); higher = thermal stabilisation; K562 lysate, 10 uM; active = over 0.2 and 3.5 SD of the protein, either way, in both replicates (recomputed)
Method in brief: (§1)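 Soluble protein was defined as the supernatant remaining after 21,000xg for 90 min, following pooling of heated aliquots and adjustment to 0.5% NP-40 at 4°C. Before that, crude K562 extract at 1 mg/mL protein in PBS pH 7.4 with 1 mM MgCl2 was treated with 10 μM compound for 30 min and heated for 3 min across 48°C-58°C. Quantification used TMTpro 16plex LC-MS/MS with channel sums equalised, and values are log-two fold changes in thermal stability relative to solvent controls from duplicates.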

Chains of the proteins cited; added tags and fusions are not shown. Lines headed by an entry give the natural chain unless they say otherwise; changes in a name come on top.
UniProt P53804: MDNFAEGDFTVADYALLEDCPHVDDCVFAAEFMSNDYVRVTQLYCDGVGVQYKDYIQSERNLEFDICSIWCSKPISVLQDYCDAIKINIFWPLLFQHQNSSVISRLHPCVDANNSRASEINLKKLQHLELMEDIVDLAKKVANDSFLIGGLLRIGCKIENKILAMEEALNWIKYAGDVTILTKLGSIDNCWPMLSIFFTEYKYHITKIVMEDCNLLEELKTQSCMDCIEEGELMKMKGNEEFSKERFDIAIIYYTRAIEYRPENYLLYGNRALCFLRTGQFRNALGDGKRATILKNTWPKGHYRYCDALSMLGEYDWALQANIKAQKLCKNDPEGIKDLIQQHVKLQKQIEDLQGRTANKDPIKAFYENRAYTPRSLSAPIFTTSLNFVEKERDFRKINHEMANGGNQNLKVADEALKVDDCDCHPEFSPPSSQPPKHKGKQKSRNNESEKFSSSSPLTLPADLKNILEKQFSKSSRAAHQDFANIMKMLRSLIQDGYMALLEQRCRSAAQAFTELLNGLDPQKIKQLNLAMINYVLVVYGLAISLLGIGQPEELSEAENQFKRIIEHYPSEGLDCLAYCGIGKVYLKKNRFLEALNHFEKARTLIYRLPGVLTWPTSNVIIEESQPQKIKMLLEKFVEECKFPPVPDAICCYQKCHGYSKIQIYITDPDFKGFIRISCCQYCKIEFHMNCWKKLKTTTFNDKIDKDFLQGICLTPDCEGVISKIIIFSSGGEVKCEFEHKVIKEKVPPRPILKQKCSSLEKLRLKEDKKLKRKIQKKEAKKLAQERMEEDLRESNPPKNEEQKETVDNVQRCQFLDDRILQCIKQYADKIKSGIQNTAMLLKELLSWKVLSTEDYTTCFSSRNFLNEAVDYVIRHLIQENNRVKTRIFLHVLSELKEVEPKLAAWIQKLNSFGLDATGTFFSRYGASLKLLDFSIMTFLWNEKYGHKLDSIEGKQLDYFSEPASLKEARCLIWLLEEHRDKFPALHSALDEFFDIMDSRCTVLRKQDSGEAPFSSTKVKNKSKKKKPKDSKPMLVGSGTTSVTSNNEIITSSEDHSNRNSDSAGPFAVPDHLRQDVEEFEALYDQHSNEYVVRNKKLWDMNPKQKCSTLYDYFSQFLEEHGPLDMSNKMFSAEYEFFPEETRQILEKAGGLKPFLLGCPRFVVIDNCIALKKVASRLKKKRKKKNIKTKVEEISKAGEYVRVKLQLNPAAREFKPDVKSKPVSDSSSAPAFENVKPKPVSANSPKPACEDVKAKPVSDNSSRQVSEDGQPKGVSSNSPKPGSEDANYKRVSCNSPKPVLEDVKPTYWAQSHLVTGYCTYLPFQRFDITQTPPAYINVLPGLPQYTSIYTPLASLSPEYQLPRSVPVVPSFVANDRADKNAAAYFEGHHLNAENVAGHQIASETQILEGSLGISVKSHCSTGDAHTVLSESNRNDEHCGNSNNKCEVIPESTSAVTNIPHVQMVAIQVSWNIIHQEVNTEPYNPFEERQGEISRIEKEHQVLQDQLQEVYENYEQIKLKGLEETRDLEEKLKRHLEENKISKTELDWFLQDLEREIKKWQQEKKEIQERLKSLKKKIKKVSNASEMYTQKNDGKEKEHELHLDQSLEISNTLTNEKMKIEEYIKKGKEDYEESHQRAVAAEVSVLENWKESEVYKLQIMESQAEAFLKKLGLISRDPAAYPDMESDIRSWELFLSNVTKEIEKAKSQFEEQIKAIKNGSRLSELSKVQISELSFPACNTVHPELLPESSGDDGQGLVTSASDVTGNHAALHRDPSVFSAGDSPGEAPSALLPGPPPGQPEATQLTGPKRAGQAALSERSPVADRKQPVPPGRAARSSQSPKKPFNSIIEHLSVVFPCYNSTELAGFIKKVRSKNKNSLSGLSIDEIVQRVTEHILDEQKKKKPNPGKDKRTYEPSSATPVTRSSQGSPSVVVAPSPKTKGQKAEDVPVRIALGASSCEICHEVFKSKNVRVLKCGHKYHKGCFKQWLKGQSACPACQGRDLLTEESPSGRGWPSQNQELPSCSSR
UniProt O60637: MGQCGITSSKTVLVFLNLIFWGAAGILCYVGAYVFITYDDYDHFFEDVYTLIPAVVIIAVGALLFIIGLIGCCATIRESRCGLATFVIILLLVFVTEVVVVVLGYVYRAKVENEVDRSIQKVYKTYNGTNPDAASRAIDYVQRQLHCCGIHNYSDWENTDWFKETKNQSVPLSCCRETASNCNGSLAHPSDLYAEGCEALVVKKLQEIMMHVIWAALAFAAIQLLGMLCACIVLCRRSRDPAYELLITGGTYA
UniProt P14373: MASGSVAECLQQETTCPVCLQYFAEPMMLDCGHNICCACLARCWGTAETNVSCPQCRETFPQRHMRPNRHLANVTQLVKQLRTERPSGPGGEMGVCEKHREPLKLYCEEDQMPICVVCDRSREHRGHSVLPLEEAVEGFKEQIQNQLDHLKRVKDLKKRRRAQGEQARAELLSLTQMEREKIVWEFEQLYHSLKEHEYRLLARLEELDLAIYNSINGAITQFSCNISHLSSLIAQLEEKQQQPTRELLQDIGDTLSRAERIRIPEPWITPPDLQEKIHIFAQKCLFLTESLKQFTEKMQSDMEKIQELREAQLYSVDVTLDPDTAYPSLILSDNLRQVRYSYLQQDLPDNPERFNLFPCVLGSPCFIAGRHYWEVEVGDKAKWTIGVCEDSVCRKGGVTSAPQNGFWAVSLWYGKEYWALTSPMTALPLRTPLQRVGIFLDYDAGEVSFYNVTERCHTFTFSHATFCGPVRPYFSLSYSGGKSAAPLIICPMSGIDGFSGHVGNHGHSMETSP
UniProt Q7Z4L5: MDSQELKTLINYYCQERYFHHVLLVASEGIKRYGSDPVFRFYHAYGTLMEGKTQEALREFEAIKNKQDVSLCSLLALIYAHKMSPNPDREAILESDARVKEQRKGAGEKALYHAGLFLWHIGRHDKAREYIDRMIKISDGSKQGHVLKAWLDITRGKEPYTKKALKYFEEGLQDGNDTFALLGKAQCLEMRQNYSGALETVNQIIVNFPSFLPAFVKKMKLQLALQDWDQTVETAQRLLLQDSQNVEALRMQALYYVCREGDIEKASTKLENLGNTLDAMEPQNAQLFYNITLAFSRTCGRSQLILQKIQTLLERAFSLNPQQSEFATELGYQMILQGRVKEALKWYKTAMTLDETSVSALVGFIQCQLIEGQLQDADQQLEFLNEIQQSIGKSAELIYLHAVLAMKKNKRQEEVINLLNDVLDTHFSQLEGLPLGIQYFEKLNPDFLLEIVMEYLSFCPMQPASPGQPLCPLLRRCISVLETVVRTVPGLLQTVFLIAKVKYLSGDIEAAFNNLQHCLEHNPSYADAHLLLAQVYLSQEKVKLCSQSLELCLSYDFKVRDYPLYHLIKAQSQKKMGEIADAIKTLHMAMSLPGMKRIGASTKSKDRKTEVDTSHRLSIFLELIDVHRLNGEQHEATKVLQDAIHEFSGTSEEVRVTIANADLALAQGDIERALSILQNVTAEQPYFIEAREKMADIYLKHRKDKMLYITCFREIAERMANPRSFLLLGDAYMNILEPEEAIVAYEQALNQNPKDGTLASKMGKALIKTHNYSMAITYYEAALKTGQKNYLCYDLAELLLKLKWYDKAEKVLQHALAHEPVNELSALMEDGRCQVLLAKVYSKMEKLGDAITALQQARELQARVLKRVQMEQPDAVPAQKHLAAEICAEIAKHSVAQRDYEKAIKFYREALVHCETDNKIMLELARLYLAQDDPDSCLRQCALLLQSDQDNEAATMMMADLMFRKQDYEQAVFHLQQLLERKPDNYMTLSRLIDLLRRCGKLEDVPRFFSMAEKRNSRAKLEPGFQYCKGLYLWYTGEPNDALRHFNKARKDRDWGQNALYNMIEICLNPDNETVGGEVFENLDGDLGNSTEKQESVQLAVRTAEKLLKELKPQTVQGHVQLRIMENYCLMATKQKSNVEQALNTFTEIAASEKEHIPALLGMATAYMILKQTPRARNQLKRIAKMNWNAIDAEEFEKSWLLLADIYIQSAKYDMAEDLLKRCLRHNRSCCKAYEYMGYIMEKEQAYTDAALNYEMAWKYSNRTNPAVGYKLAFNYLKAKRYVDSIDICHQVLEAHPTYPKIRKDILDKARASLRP
UniProt Q14679: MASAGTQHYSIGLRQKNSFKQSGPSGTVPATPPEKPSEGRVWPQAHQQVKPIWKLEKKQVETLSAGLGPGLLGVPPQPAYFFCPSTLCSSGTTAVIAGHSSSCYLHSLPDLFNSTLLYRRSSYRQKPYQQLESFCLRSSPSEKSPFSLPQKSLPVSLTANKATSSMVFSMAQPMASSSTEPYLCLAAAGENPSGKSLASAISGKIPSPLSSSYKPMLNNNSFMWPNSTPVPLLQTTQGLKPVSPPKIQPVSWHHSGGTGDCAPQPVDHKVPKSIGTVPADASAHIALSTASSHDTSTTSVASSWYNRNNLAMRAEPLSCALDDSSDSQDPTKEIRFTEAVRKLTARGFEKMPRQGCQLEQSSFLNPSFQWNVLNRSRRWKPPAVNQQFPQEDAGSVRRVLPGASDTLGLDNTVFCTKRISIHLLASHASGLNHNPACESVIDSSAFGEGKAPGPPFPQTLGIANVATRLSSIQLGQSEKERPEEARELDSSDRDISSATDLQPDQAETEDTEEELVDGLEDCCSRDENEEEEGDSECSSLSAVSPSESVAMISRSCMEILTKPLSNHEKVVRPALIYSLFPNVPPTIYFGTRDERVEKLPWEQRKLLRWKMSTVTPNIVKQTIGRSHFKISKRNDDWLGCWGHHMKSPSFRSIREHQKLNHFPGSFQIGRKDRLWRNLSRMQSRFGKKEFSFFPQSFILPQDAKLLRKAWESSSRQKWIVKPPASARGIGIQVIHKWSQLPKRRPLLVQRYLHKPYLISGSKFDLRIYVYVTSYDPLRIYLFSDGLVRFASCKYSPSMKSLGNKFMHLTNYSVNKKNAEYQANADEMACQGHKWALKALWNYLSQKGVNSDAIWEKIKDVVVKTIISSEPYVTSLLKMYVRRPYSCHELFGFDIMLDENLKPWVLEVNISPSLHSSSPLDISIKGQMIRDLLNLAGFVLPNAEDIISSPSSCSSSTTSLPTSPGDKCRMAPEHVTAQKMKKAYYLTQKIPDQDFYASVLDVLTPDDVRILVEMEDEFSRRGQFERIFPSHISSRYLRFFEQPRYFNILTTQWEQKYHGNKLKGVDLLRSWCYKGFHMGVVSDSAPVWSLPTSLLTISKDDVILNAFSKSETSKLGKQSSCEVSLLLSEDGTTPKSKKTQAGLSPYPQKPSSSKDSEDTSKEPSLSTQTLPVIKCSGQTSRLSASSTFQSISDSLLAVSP
UniProt Q629K1: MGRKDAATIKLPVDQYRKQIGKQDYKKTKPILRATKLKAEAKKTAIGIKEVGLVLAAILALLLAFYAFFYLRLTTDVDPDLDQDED
UniProt Q8N831: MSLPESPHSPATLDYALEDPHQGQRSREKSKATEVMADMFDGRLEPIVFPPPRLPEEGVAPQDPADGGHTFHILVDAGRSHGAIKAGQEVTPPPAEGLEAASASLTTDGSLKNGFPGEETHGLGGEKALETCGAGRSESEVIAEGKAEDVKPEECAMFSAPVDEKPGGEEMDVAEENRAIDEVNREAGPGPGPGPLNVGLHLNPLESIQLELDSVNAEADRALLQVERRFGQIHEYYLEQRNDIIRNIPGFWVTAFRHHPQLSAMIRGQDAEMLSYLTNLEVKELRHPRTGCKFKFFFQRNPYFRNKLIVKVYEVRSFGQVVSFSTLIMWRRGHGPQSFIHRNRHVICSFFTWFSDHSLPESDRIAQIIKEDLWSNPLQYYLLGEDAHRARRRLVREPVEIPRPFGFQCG
UniProt Q9BU70: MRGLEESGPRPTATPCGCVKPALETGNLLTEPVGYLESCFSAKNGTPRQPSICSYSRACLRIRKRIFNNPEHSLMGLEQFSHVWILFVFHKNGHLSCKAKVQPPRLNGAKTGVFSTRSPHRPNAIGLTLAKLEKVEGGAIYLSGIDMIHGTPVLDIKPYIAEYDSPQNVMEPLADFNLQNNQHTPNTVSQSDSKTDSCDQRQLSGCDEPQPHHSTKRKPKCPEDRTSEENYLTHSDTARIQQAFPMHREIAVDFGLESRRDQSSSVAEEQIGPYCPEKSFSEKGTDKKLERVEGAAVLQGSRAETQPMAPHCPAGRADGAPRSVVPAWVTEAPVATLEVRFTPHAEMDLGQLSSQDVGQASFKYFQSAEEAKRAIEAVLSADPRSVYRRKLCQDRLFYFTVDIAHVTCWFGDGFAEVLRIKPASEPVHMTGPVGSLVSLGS
UniProt Q12999: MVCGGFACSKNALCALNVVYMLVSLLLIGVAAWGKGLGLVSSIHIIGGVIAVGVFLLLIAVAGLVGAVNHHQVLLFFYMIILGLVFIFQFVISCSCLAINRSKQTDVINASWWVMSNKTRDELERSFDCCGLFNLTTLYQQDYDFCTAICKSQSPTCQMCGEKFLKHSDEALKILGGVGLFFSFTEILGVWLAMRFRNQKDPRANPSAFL

log2 fold change, inactive:
TTC26 0.197
TTC28 (UniProt Q96AY4) 0.011
TTC3 (UniProt P53804) -0.041
TSPAN3 (UniProt O60637) 0.004
TTC7A isoform 4 (UniProt Q9ULT0) 0.008
TRIM27 (UniProt P14373) 0.075
TRIM26 (UniProt Q12899) -0.132
TTF1 (UniProt Q15361) -0.074
TRIM68 (UniProt Q6AZZ1) -0.156
TTC21B (UniProt Q7Z4L5) -0.12
TTLL4 (UniProt Q14679) 0.13
TSEN15, A0A2U3TZM3 0.121

compound: Cc1nc(Nc2n[nH]c3c2CN(C(=O)N[C@H](CN(C)C)c2ccccc2)C3(C)C)c2sccc2n1; experiment: as above
Method in brief: as §1

log2 fold change, inactive:
TTC26 -0.075
TTC28 (UniProt Q96AY4) -0.114
TTC3 (UniProt P53804) -0.148
TSPAN3 (UniProt O60637) -0.003
TTC7A isoform 4 (UniProt Q9ULT0) -0.153
TRIM27 (UniProt P14373) -0.006
TRIM26 (UniProt Q12899) 0.027
TTF1 (UniProt Q15361) -0.047
TRIM68 (UniProt Q6AZZ1) 0.037
TTC21B (UniProt Q7Z4L5) 0.024
TTLL4 (UniProt Q14679) -0.045
TSEN15, A0A2U3TZM3 0.088

compound: Cc1nc(Nc2ncc(C(=O)Nc3c(C)cccc3Cl)s2)cc(N2CCN(CCO)CC2)n1 [dasatinib]; experiment: as above
Method in brief: as §1

log2 fold change, inactive:
TRPM4 (UniProt Q8TD43) -0.02
TTC26 -0.175
TTC3 (UniProt P53804) -0.081
TSPAN3 (UniProt O60637) 0.118
TRPS1 isoform 2 (UniProt Q9UHF7) 0.103
TRIQK (UniProt Q629K1) 0.218
TRIM41 (UniProt Q8WV44) -0.069
TRIB3 (UniProt Q96RU7) 0.126
TSPYL6 (UniProt Q8N831) 0.021
TRMO (UniProt Q9BU70) -0.002
TSKS (UniProt Q9UJT2) 0.119
TRUB2 (UniProt O95900) -0.07
TRAF3IP1 (UniProt Q8TDR0) -0.029
TRIM16 (UniProt O95361) -0.061
TRIOBP (UniProt Q9H2D6) -0.029
TTC21B (UniProt Q7Z4L5) 0.073
TRIM37 (UniProt O94972) -0.163
TSPAN31 (UniProt Q12999) 0.135
TSEN15, A0A2U3TZM3 0.024
TTC39B (UniProt Q5VTQ0) -0.031
